Some results were stated once for a whole list of compounds, not compound by compound.
Experiments:
Type in all cases: in vivo
Venturia inaequalis = test: Venturia test (apple)/protective; conditions: protective, application rate 10 g/ha, evaluation 12 days after inoculation
Phytophthora infestans = conditions: tomato, protective, application rate 100 g/ha, evaluation 3 days after inoculation
Pyricularia oryzae = conditions: rice, protective, application rate 125 g/ha, evaluation 7 days after inoculation
Plasmopara viticola = test: Plasmopara test (grapevine)/protective; conditions: protective, application rate 100 g/ha, evaluation 6 days after inoculation
Sphaerotheca fuliginea = test: Sphaerotheca test (cucumber)/protective; conditions: protective, application rate 750 g/ha, evaluation 7 days after inoculation
Leptosphaeria nodorum = Leptosphaeria nodorum test (wheat)/protective; conditions: protective, application rate 250 g/ha, evaluation 10 days after inoculation

| SMILES | efficacy (Venturia inaequalis) [%] | efficacy (Phytophthora infestans) [%] | efficacy (Pyricularia oryzae) [%] | efficacy (Plasmopara viticola) [%] | efficacy (Sphaerotheca fuliginea) [%] | efficacy (Leptosphaeria nodorum) [%] |
| --- | --- | --- | --- | --- | --- | --- |
| CON=C(C(=O)OC)c1ccccc1Oc1ncnc(Oc2ccc(C)cc2C)c1F [Example 3] | ≥ 90 | ≥ 90 |  |  |  |  |
| CON=C(C(=O)OC)c1ccccc1Oc1ncnc(Oc2ccccc2F)c1F [Example 4] | ≥ 90 | ≥ 90 | ≥ 90 | ≥ 95 | ≥ 90 |  |
| CON=C(C(=O)OC)c1ccccc1Oc1ncnc(Oc2ccccc2OC(F)F)c1F [Example 6] |  |  | ≥ 90 |  |  | ≥ 95 |
| CON=C(C(=O)OC)c1ccccc1Oc1ncnc(Oc2cccc(C)c2C)c1F [Example 7] | ≥ 90 | ≥ 90 | ≥ 90 | ≥ 95 | ≥ 90 |  |
| CON=C(C(=O)OC)c1ccccc1Oc1ncnc(Oc2cccc(Cl)c2Cl)c1F [Example 8] |  |  | ≥ 90 |  | ≥ 90 | ≥ 95 |
| CON=C(C(=O)OC)c1ccccc1Oc1ncnc(Oc2cccc(Cl)c2C)c1F [Example 11] | ≥ 90 | ≥ 90 | ≥ 90 | ≥ 95 | ≥ 90 |  |
| CON=C(C(=O)OC)c1ccccc1Oc1ncnc(Oc2ccccc2C)c1F [Example 17] | ≥ 90 | ≥ 90 | ≥ 90 | ≥ 95 | ≥ 90 | ≥ 95 |

Reference: patent US6683029B1, “Halopyrimidines” (Bayer Aktiengesellschaft, priority 1999, dated 2004)
